Experimental data as given in the supplement of paper PMC10849652.
The list shows a part of the results.

Chains of the proteins cited; added tags and fusions are not shown. Lines headed by an entry give the natural chain unless they say otherwise; changes in a name come on top.
UniProt Q68CP9, whole entry, looked up: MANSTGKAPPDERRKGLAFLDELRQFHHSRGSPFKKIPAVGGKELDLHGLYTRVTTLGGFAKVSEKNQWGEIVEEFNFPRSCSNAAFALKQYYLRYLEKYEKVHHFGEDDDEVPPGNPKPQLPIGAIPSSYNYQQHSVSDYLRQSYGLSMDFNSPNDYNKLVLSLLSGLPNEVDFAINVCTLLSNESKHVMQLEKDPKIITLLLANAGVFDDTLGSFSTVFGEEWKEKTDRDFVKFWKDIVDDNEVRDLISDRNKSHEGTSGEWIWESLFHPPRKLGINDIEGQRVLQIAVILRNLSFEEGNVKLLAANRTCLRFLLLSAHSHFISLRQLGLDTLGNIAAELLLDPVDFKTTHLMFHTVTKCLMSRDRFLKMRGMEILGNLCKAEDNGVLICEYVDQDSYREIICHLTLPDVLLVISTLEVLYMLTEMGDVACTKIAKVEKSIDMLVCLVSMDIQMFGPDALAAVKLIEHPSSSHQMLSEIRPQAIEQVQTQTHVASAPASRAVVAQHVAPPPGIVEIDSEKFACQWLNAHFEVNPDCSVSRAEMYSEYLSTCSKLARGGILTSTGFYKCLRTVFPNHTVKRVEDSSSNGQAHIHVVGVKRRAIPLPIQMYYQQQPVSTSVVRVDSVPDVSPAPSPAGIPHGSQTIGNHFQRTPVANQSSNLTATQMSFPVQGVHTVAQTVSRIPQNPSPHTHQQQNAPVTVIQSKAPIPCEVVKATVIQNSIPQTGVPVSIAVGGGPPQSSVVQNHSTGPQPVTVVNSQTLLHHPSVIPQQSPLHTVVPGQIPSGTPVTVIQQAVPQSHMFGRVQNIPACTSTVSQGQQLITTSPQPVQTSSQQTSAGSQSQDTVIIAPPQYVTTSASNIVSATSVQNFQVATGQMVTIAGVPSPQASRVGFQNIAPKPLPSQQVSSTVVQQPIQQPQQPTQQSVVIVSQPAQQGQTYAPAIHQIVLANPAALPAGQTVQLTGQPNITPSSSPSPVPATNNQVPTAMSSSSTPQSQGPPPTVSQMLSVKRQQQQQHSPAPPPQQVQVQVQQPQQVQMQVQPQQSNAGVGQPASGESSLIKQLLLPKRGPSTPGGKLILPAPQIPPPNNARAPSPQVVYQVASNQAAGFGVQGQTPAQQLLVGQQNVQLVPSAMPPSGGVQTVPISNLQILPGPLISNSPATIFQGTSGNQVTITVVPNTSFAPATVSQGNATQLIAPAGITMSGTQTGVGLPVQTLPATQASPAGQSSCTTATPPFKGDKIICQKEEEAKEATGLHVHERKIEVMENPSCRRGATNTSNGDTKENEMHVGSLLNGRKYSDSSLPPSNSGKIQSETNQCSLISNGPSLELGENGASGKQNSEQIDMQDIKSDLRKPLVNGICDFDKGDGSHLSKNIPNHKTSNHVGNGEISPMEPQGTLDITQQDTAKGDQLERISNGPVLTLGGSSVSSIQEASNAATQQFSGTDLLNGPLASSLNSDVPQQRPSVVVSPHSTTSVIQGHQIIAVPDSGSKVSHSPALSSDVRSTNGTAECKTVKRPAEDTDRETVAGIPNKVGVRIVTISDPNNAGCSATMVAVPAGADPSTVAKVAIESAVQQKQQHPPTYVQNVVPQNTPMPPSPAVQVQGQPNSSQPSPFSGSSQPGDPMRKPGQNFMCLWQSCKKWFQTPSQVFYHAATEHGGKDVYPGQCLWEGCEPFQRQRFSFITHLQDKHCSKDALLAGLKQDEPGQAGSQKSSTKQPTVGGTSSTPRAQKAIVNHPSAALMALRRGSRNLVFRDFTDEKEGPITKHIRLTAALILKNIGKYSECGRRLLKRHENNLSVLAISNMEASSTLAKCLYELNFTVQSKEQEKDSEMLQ
UniProt P49407: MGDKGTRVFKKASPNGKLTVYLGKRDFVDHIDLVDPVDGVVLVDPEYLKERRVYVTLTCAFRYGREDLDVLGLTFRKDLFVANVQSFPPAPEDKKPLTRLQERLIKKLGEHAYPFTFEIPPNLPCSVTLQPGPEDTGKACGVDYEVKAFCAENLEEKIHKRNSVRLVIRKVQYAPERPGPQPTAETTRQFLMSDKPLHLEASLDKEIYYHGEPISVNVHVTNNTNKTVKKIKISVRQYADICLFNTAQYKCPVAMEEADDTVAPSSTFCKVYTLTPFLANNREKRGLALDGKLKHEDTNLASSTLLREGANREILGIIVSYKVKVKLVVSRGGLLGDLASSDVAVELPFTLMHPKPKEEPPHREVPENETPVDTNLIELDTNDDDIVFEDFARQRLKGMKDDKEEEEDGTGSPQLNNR
UniProt Q8WWN8: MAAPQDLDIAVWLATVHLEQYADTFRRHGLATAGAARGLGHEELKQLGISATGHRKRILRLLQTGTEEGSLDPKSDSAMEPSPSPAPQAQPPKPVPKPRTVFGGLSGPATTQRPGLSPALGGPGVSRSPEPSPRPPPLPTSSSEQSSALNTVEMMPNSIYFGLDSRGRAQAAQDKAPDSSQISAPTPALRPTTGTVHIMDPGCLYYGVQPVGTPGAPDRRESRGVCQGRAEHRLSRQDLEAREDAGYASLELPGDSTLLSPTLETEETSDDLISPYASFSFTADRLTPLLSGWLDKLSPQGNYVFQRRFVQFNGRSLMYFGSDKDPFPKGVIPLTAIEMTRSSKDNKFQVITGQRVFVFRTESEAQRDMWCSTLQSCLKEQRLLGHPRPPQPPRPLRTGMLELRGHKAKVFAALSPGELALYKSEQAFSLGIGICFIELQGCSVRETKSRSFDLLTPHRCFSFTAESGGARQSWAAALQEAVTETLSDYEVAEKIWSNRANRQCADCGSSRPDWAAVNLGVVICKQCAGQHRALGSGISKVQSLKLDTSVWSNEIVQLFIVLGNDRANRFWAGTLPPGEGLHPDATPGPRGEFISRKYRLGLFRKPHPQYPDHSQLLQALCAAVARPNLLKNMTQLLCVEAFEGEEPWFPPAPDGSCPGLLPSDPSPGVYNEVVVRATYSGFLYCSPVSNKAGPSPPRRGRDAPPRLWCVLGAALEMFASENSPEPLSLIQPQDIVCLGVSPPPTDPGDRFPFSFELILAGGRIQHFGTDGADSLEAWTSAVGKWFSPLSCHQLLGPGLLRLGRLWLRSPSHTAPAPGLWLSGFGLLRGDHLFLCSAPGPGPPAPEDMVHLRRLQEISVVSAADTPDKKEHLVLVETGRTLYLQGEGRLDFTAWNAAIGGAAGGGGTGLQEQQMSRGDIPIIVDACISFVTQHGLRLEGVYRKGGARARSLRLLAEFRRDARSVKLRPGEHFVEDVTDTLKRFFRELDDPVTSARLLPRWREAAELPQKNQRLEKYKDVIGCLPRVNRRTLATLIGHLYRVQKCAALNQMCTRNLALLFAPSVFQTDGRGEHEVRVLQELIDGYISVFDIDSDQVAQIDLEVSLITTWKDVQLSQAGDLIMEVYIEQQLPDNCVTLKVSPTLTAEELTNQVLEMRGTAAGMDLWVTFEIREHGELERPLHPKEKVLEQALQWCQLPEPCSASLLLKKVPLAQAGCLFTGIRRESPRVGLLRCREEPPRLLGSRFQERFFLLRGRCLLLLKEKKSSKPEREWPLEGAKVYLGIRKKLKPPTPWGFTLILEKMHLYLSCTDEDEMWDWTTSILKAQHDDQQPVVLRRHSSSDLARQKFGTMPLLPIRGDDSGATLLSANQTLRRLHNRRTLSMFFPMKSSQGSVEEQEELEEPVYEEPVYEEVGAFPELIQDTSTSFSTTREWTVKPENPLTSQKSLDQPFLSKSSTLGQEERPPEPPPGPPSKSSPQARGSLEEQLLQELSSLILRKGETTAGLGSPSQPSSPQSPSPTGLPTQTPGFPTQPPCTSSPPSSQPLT
UniProt P84077: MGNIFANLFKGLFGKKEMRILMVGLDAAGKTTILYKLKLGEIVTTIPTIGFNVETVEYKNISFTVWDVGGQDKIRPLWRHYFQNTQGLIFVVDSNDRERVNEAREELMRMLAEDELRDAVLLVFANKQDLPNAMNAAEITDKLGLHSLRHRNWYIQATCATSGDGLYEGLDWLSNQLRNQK
UniProt Q9UH17: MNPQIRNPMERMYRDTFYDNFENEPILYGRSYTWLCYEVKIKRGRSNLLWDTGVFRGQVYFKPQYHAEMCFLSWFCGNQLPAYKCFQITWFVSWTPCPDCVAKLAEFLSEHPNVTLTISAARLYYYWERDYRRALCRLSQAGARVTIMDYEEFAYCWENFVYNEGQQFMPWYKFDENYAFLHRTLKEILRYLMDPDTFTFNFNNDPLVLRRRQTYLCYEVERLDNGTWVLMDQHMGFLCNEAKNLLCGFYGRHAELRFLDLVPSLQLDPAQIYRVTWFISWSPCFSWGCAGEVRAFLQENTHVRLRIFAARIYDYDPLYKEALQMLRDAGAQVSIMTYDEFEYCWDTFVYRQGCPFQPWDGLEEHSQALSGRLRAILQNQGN
UniProt Q8N8R7: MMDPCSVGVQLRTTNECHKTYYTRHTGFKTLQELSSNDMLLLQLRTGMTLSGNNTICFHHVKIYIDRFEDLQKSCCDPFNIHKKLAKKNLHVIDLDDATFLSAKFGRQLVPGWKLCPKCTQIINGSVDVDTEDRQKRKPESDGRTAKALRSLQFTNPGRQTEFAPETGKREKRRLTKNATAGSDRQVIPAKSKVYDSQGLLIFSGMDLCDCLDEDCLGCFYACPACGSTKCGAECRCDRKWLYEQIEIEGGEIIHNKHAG
UniProt P29374: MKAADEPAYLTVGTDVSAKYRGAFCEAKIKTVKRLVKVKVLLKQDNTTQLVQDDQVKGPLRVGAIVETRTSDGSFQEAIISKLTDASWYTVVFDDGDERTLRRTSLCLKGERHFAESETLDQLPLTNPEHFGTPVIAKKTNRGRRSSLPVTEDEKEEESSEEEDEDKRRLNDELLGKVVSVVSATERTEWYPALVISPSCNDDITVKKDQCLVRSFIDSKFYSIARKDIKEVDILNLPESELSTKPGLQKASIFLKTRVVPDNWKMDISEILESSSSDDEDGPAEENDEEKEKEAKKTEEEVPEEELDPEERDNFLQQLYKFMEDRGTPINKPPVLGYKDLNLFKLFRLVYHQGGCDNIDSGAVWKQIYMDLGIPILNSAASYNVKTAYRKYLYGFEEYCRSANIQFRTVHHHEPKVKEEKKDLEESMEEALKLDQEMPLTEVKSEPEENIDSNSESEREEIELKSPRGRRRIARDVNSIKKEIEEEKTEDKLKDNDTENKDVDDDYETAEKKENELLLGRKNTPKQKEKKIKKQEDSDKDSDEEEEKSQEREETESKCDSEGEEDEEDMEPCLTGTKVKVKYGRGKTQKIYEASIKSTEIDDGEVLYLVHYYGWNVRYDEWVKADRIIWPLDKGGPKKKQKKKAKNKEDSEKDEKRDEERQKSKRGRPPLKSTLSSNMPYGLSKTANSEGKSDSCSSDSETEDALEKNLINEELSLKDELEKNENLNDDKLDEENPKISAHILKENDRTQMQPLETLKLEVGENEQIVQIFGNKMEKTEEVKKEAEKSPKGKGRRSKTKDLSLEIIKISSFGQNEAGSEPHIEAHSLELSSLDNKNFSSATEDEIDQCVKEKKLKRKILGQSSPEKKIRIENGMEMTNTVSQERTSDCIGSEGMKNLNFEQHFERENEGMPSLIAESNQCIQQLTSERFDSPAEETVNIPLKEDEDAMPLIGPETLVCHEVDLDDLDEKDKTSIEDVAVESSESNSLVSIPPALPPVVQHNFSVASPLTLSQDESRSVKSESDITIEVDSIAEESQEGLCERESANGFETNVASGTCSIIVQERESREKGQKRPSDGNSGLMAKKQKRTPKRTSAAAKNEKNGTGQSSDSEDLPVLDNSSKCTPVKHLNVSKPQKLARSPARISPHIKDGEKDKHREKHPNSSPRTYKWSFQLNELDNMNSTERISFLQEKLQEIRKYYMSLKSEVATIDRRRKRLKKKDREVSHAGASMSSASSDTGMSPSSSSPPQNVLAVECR
UniProt Q96KC2: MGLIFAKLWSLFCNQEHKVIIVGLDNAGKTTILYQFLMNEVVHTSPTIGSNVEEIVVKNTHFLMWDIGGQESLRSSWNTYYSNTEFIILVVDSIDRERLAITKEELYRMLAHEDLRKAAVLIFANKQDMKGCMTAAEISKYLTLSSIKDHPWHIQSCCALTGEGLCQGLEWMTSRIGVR
UniProt Q3SXY8: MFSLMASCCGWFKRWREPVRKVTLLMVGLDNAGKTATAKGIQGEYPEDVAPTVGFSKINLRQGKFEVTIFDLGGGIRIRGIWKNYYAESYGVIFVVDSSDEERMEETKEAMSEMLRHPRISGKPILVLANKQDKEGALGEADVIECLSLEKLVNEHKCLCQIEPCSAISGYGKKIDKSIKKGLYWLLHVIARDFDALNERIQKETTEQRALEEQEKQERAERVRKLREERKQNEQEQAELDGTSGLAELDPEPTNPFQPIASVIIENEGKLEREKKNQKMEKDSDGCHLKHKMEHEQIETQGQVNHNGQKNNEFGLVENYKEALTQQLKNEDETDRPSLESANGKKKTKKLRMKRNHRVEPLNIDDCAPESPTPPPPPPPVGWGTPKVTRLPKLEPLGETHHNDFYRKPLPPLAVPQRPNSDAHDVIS

Assays:
Assay in all cases: log2 fold change, soluble protein after heating vs DMSO (PISA); higher = thermal stabilisation; K562 lysate, 10 uM; active = over 0.2 and 3.5 SD of the protein, either way, in both replicates (recomputed)
alvocidib = compound: CN1CC[C@H](c2c(O)cc(O)c3c(=O)cc(-c4ccccc4Cl)oc23)[C@H](O)C1 [alvocidib]
How it was run: (§1)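 Dounce homogenisation of K562 pellets in PBS pH 7.4 with 1 mM MgCl2 produced a crude extract, used at 1 mg/mL protein. Exposure to 10 μM compound lasted 30 min, and aliquots were then heated for 3 min across 48°C-58°C, pooled and brought to 0.5% NP-40 at 4°C. The supernatant after 21,000xg for 90 min was quantified by TMTpro 16plex LC-MS/MS with channel sums equalised. Duplicate values are given as log-two fold change in thermal stability relative to solvent controls.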

Tubastatin A = compound: CN1CCc2c(c3ccccc3n2Cc2ccc(C(=O)NO)cc2)C1 [Tubastatin A]
How it was run: as §1

[1] = compound: CNC(=O)C1=CC=CC=C1NC2=NC(=NC=C2Cl)NC3=C(C=C(C=C3)N4CCOCC4)OC
How it was run: as §1

defactinib = compound: CNC(=O)c1ccc(Nc2ncc(C(F)(F)F)c(NCc3nccnc3N(C)S(C)(=O)=O)n2)cc1 [defactinib]
How it was run: as §1

[2] = compound: CNc1nc(-c2ccc3c(N)n[nH]c3c2)cc(N2C[C@@H](C(=O)NC3CCCCC3)CC[C@H]2C)n1
How it was run: as §1

encorafenib = compound: COC(=O)N[C@@H](C)CNc1nccc(-c2cn(C(C)C)nc2-c2cc(Cl)cc(NS(C)(=O)=O)c2F)n1 [encorafenib]
How it was run: as §1

[3] = compound: COC(=O)[C@H](CCSC)NC(=O)C1=C(C=C(C=C1)NC[C@H](CS)N)C2=CC=CC=C2
How it was run: as §1

alisertib = compound: COc1cc(Nc2ncc3c(n2)-c2ccc(Cl)cc2C(c2c(F)cccc2OC)=NC3)ccc1C(=O)O [alisertib]
How it was run: as §1

[4] = compound: COc1cc2nc(-c3cc(F)ccc3O)nc(N[C@@H]3CNC[C@H]3C(C)(C)O)c2cc1OC
How it was run: as §1

gefitinib = compound: COc1cc2ncnc(Nc3ccc(F)c(Cl)c3)c2cc1OCCCN1CCOCC1 [gefitinib]
How it was run: as §1

lapatinib = compound: CS(=O)(=O)CCNCc1ccc(-c2ccc3ncnc(Nc4ccc(OCc5cccc(F)c5)c(Cl)c4)c3c2)o1 [lapatinib]
How it was run: as §1

pictilisib = compound: CS(=O)(=O)N1CCN(Cc2cc3nc(-c4cccc5[nH]ncc45)nc(N4CCOCC4)c3s2)CC1 [pictilisib]
How it was run: as §1

crizotinib = compound: C[C@@H](Oc1cc(-c2cnn(C3CCNCC3)c2)cnc1N)c1c(Cl)ccc(F)c1Cl [crizotinib]
How it was run: as §1

[5] = compound: C[C@H](C1=CC=C(C=C1)C(=O)NC2=C3C=CNC3=NC=C2)N
How it was run: as §1

duvelisib = compound: C[C@H](Nc1ncnc2nc[nH]c12)c1cc2cccc(Cl)c2c(=O)n1-c1ccccc1 [duvelisib]
How it was run: as §1

gandotinib = compound: Cc1cc(Nc2cc(CN3CCOCC3)c3nc(C)c(Cc4ccc(Cl)cc4F)n3n2)n[nH]1 [gandotinib]
How it was run: as §1

tozasertib = compound: Cc1cc(Nc2cc(N3CCN(C)CC3)nc(Sc3ccc(NC(=O)C4CC4)cc3)n2)n[nH]1 [tozasertib]
How it was run: as §1

doramapimod = compound: Cc1ccc(-n2nc(C(C)(C)C)cc2NC(=O)Nc2ccc(OCCN3CCOCC3)c3ccccc23)cc1 [doramapimod]
How it was run: as §1

bafetinib = compound: Cc1ccc(NC(=O)c2ccc(CN3CC[C@H](N(C)C)C3)c(C(F)(F)F)c2)cc1Nc1nccc(-c2cncnc2)n1 [bafetinib]
How it was run: as §1

[6] = compound: Cc1cccc(CC(=O)N2CCc3c2ccc(-c2cn(C)c4ncnc(N)c24)c3F)n1
How it was run: as §1

Measured: log2 fold change

ARIH2 (UniProt O95376)
inactive: alvocidib -0.043 | Tubastatin A 0.052 | [1] 0.031 | defactinib 0.051 | [2] 0.028 | encorafenib 0.023 | [3] -0.018 | alisertib -0.001 | [4] -0.023 | gefitinib -0.011 | lapatinib 0.057 | pictilisib 0.01 | crizotinib -0.034 | [5] 0.029 | duvelisib 0.028 | gandotinib -0.043 | tozasertib -0.001 | doramapimod 0.04 | bafetinib -0.001 | [6] -0.01

ARID2 (UniProt Q68CP9)
inactive: alvocidib -0.024 | Tubastatin A -0.091 | defactinib -0.007 | [2] 0.007 | encorafenib 0.013 | [3] 0.052 | alisertib -0.064 | [4] 0.021 | gefitinib 0.015 | lapatinib -0.017 | pictilisib -0.139 | crizotinib -0.036 | [5] -0.097 | duvelisib 0.05 | gandotinib 0.233 | tozasertib 0.01 | doramapimod -0.001 | bafetinib 0.013 | [6] 0.13

APOBEC3F (UniProt Q8IUX4)
inactive: alvocidib -0.004 | [1] -0.114 | defactinib -0.053 | encorafenib 0.102 | [3] 0 | alisertib -0.025 | [4] 0.066 | gefitinib 0.014 | lapatinib -0.195 | pictilisib -0.127 | crizotinib 0.243 | [5] -0.13 | gandotinib 0.103 | tozasertib -0.037 | doramapimod 0.021 | bafetinib -0.022 | [6] -0.181

ARRB1 (UniProt P49407)
inactive: alvocidib -0.006 | Tubastatin A 0.04 | [1] -0.012 | defactinib 0.004 | [2] 0.044 | encorafenib -0.003 | [3] -0.045 | alisertib 0.019 | [4] 0.002 | gefitinib 0 | lapatinib 0.011 | pictilisib 0.002 | crizotinib 0.004 | [5] -0.061 | duvelisib 0 | gandotinib 0.001 | tozasertib 0.002 | doramapimod -0.025 | bafetinib 0.032 | [6] 0.006

AP5B1 (UniProt Q2VPB7)
inactive: alvocidib -0.091 | Tubastatin A -0.149 | [1] 0.099 | [2] -0.092 | encorafenib -0.017 | [3] -0.011 | alisertib -0.008 | [4] -0.059 | gefitinib 0.05 | lapatinib 0.095 | pictilisib -0.046 | crizotinib 0.069 | [5] 0.034 | duvelisib -0.012 | gandotinib -0.092 | tozasertib -0.028 | doramapimod 0.272 | bafetinib -0.056 | [6] 0.047

ARAP3 (UniProt Q8WWN8)
inactive: alvocidib -0.123 | [1] 0.07 | [2] -0.087 | encorafenib 0.184 | [3] 0.02 | alisertib 0.04 | gefitinib -0.067 | [5] 0.158 | duvelisib -0.016 | gandotinib -0.169 | tozasertib -0.039 | [6] 0.063

ARSK (UniProt Q6UWY0)
inactive: alvocidib -0.123 | Tubastatin A 0.066 | [1] -0.015 | defactinib 0.089 | [2] -0.134 | encorafenib 0.042 | [3] 0.108 | [4] 0 | lapatinib 0.01 | [5] -0.184 | duvelisib -0.064 | gandotinib 0.021 | tozasertib -0.051 | [6] 0.068

ARF1 (UniProt P84077)
inactive: alvocidib 0.074 | Tubastatin A -0.028 | [1] 0.009 | [4] 0.005 | lapatinib -0.062 | crizotinib 0 | [5] -0.169 | gandotinib 0.301 | doramapimod 0.011 | [6] -0.284

APOBEC3B (UniProt Q9UH17)
inactive: alvocidib 0.022 | Tubastatin A 0.098 | [1] -0.131 | defactinib 0.092 | [2] 0.028 | encorafenib -0.004 | [3] -0.193 | alisertib 0.052 | gefitinib -0.088 | crizotinib 0.005 | [5] -0.085 | duvelisib -0.036 | gandotinib -0.081 | tozasertib -0.13 | doramapimod -0.097 | [6] 0.052

ARL14EP (UniProt Q8N8R7)
inactive: alvocidib 0.007 | Tubastatin A -0.092 | [1] 0.077 | defactinib 0.102 | [2] -0.007 | alisertib -0.034 | gefitinib 0.053 | pictilisib -0.031 | crizotinib -0.108 | [5] 0.032 | duvelisib -0.014 | gandotinib -0.001 | doramapimod 0.023 | bafetinib -0.116 | [6] -0.064

ARID4A (UniProt P29374)
inactive: alvocidib -0.212 | Tubastatin A -0.067 | [1] -0.015 | defactinib -0.171 | [2] 0.139 | alisertib 0.08 | gefitinib 0.007 | [5] -0.06 | duvelisib -0.046 | gandotinib -0.153 | [6] 0.145

ARL5B (UniProt Q96KC2)
inactive: alvocidib -0.035 | Tubastatin A 0.043 | [1] 0.007 | defactinib 0.036 | encorafenib 0.158 | [3] -0.311 | alisertib 0.02 | [4] 0 | gefitinib 0.013 | lapatinib -0.207 | pictilisib 0.004 | crizotinib -0.035 | [5] -0.138 | gandotinib 0.083 | tozasertib 0.064 | doramapimod -0.004 | bafetinib -0.213 | [6] 0.084

ARL13B (UniProt Q3SXY8)
active: [5] 0.4
inactive: alvocidib 0.182 | Tubastatin A 0.018 | [1] 0.165 | defactinib -0.025 | [2] -0.102 | [4] 0 | lapatinib 0.016 | pictilisib -0.074 | crizotinib -0.075 | duvelisib 0.014 | gandotinib -0.23 | doramapimod -0.068 | bafetinib 0.025 | [6] -0.217

2 entries drawn at random from the list so far:
ARL5B (UniProt Q96KC2)
inactive: alvocidib -0.035 | Tubastatin A 0.043 | [1] 0.007 | defactinib 0.036 | encorafenib 0.158 | [3] -0.311 | alisertib 0.02 | [4] 0 | gefitinib 0.013 | lapatinib -0.207 | pictilisib 0.004 | crizotinib -0.035 | [5] -0.138 | gandotinib 0.083 | tozasertib 0.064 | doramapimod -0.004 | bafetinib -0.213 | [6] 0.084

ARL13B (UniProt Q3SXY8)
active: [5] 0.4
inactive: alvocidib 0.182 | Tubastatin A 0.018 | [1] 0.165 | defactinib -0.025 | [2] -0.102 | [4] 0 | lapatinib 0.016 | pictilisib -0.074 | crizotinib -0.075 | duvelisib 0.014 | gandotinib -0.23 | doramapimod -0.068 | bafetinib 0.025 | [6] -0.217
